Test results from the supplement of paper PMC10077471.
In all, about 1,900 compounds were measured (“excess over highest single agent (ExcessHSA) synergy score, 6x6 matrix”: median about -83, lowest 2% from about -370 on). The list shows a part of the results.

system: NCI-H446; experiment: excess over highest single agent (ExcessHSA) synergy score, 6x6 matrix; higher = less synergy (more negative = stronger synergy); conditions: 72 h; CellTiter-Glo viability

| SMILES | excess over highest single agent |
| --- | --- |
| Nc1ccccc1NC(=O)c1ccc(CNc2nccc(-c3cccnc3)n2)cc1 + Cc1sc2c(c1C)C(c1ccc(Cl)cc1)=N[C@@H](CC(=O)OC(C)(C)C)c1nnc(C)n1-2 [NCGC00250412-19] | -367 |
| CC(C)(C)OC(=O)Nc1ccc(-c2cc(C(=O)NCCCCCCC(=O)NO)no2)cc1 + Cc1sc2c(c1C)C(c1ccc(Cl)cc1)=N[C@@H](CC(=O)OC(C)(C)C)c1nnc(C)n1-2 [NCGC00250412-19] | -161 |
| CN1CC(=O)N=C1NC(=O)Nc1cccc(Cl)c1 + Cc1sc2c(c1C)C(c1ccc(Cl)cc1)=N[C@@H](CC(=O)OC(C)(C)C)c1nnc(C)n1-2 [NCGC00250412-19] | -53.3 |
| Clc1cccc(-n2nnnc2NCc2ccccc2Oc2ccccn2)c1Cl + Cc1sc2c(c1C)C(c1ccc(Cl)cc1)=N[C@@H](CC(=O)OC(C)(C)C)c1nnc(C)n1-2 [NCGC00250412-19] | -103 |
| CC1=C(C(=O)O)N2C(=O)[C@@H](NC(=O)[C@H](N)c3ccccc3)[C@H]2SC1 + Cc1sc2c(c1C)C(c1ccc(Cl)cc1)=N[C@@H](CC(=O)OC(C)(C)C)c1nnc(C)n1-2 [NCGC00250412-19] | -51.4 |
| CC[C@H](C)C(=O)O[C@H]1C[C@H](O)C=C2C=C[C@H](C)[C@H](CC[C@@H](O)C[C@@H](O)CC(=O)O)[C@H]21 + Cc1sc2c(c1C)C(c1ccc(Cl)cc1)=N[C@@H](CC(=O)OC(C)(C)C)c1nnc(C)n1-2 [NCGC00250412-19] | -73.4 |
| NCC1(CC(=O)O)CCCCC1 + Cc1sc2c(c1C)C(c1ccc(Cl)cc1)=N[C@@H](CC(=O)OC(C)(C)C)c1nnc(C)n1-2 [NCGC00250412-19] | -93.6 |
| O=c1cccc2n1C[C@@H]1CNC[C@H]2C1 + Cc1sc2c(c1C)C(c1ccc(Cl)cc1)=N[C@@H](CC(=O)OC(C)(C)C)c1nnc(C)n1-2 [NCGC00250412-19] | 44.7 |
| CCOC(=O)N[C@@H]1CC[C@@H]2[C@@H](C1)C[C@H]1C(=O)O[C@H](C)[C@H]1[C@H]2/C=C/c1ccc(-c2cccc(F)c2)cn1 + Cc1sc2c(c1C)C(c1ccc(Cl)cc1)=N[C@@H](CC(=O)OC(C)(C)C)c1nnc(C)n1-2 [NCGC00250412-19] | -16.7 |
| Cc1cc(Nc2cc(CN3CCOCC3)c3nc(C)c(Cc4ccc(Cl)cc4F)n3n2)n[nH]1 + Cc1sc2c(c1C)C(c1ccc(Cl)cc1)=N[C@@H](CC(=O)OC(C)(C)C)c1nnc(C)n1-2 [NCGC00250412-19] | -96.4 |
| Nc1nnc(-c2cccc(Cl)c2Cl)c(N)n1 + Cc1sc2c(c1C)C(c1ccc(Cl)cc1)=N[C@@H](CC(=O)OC(C)(C)C)c1nnc(C)n1-2 [NCGC00250412-19] | 55.7 |
| CC[C@@]1(O)C(=O)OCc2c1cc1n(c2=O)Cc2cc3c(CN(C)C)c(O)ccc3nc2-1 + Cc1sc2c(c1C)C(c1ccc(Cl)cc1)=N[C@@H](CC(=O)OC(C)(C)C)c1nnc(C)n1-2 [NCGC00250412-19] | -475 |
| C[C@@]12OC(=O)[C@]1([C@@H](O)[C@@H]1C=CCCC1)NC(=O)[C@@H]2CCCl + Cc1sc2c(c1C)C(c1ccc(Cl)cc1)=N[C@@H](CC(=O)OC(C)(C)C)c1nnc(C)n1-2 [NCGC00250412-19] | -247 |
| Oc1cc(O)cc(/C=C/c2ccc(O)c(O)c2)c1 + Cc1sc2c(c1C)C(c1ccc(Cl)cc1)=N[C@@H](CC(=O)OC(C)(C)C)c1nnc(C)n1-2 [NCGC00250412-19] | -193 |
| Nc1nc(=O)[nH]cc1F + Cc1sc2c(c1C)C(c1ccc(Cl)cc1)=N[C@@H](CC(=O)OC(C)(C)C)c1nnc(C)n1-2 [NCGC00250412-19] | 45.8 |
| CCN1CCN(c2ccc(Nc3cc(N(C)C(=O)Nc4c(Cl)c(OC)cc(OC)c4Cl)ncn3)cc2)CC1 + Cc1sc2c(c1C)C(c1ccc(Cl)cc1)=N[C@@H](CC(=O)OC(C)(C)C)c1nnc(C)n1-2 [NCGC00250412-19] | -296 |
| NC(=O)c1cnc(-c2ccc(C3(N)CCC3)cc2)c(-c2ccccc2)c1 + Cc1sc2c(c1C)C(c1ccc(Cl)cc1)=N[C@@H](CC(=O)OC(C)(C)C)c1nnc(C)n1-2 [NCGC00250412-19] | -53.9 |
| CC(=O)O[C@]1(C(C)=O)CC[C@H]2[C@@H]3C=C(C)C4=CC(=O)CC[C@]4(C)[C@H]3CC[C@@]21C + Cc1sc2c(c1C)C(c1ccc(Cl)cc1)=N[C@@H](CC(=O)OC(C)(C)C)c1nnc(C)n1-2 [NCGC00250412-19] | 6.7 |
| C=C1[C@H](CO)[C@@H](O)C[C@@H]1n1cnc2c(=O)[nH]c(N)nc21 + Cc1sc2c(c1C)C(c1ccc(Cl)cc1)=N[C@@H](CC(=O)OC(C)(C)C)c1nnc(C)n1-2 [NCGC00250412-19] | -70 |

Some values from the results shown.
NCC1(CC(=O)O)CCCCC1 + Cc1sc2c(c1C)C(c1ccc(Cl)cc1)=N[C@@H](CC(=O)OC(C)(C)C)c1nnc(C)n1-2 [NCGC00250412-19] | excess over highest single agent: -93.6
Nc1nc(=O)[nH]cc1F + Cc1sc2c(c1C)C(c1ccc(Cl)cc1)=N[C@@H](CC(=O)OC(C)(C)C)c1nnc(C)n1-2 [NCGC00250412-19] | excess over highest single agent: 45.8
C=C1[C@H](CO)[C@@H](O)C[C@@H]1n1cnc2c(=O)[nH]c(N)nc21 + Cc1sc2c(c1C)C(c1ccc(Cl)cc1)=N[C@@H](CC(=O)OC(C)(C)C)c1nnc(C)n1-2 [NCGC00250412-19] | excess over highest single agent: -70

More results follow.

| SMILES | excess over highest single agent |
| --- | --- |
| COc1ccnc2[nH]cc(C(=O)C(=O)N3CCN(C(=O)c4ccccc4)C[C@H]3C)c12 + Cc1sc2c(c1C)C(c1ccc(Cl)cc1)=N[C@@H](CC(=O)OC(C)(C)C)c1nnc(C)n1-2 [NCGC00250412-19] | 58.1 |
| CO/N=C(\C(=O)N[C@@H]1C(=O)N2C(C(=O)O)=C(CSC(=O)c3ccco3)CS[C@H]12)c1csc(N)n1 + Cc1sc2c(c1C)C(c1ccc(Cl)cc1)=N[C@@H](CC(=O)OC(C)(C)C)c1nnc(C)n1-2 [NCGC00250412-19] | -112 |
| C[C@H](CCC(=O)O)[C@H]1CC[C@H]2[C@@H]3C[C@H](O)[C@@H]4C[C@H](O)CC[C@]4(C)[C@H]3CC[C@]12C + Cc1sc2c(c1C)C(c1ccc(Cl)cc1)=N[C@@H](CC(=O)OC(C)(C)C)c1nnc(C)n1-2 [NCGC00250412-19] | -123 |
| NC(=O)Nc1sc(-c2ccc(F)cc2)cc1C(N)=O + Cc1sc2c(c1C)C(c1ccc(Cl)cc1)=N[C@@H](CC(=O)OC(C)(C)C)c1nnc(C)n1-2 [NCGC00250412-19] | -176 |
| CCN1CCN(C(=O)Cc2ccc(Nc3ncc(F)c(Nc4ccc(C(=O)Nc5ccccc5Cl)cc4)n3)cc2)CC1 + Cc1sc2c(c1C)C(c1ccc(Cl)cc1)=N[C@@H](CC(=O)OC(C)(C)C)c1nnc(C)n1-2 [NCGC00250412-19] | -388 |
| CC(C)(C)OC(=O)N[C@H]1CCCCC/C=C\[C@@H]2C[C@@]2(C(=O)NS(=O)(=O)C2CC2)NC(=O)[C@@H]2C[C@@H](OC(=O)N3Cc4cccc(F)c4C3)CN2C1=O + Cc1sc2c(c1C)C(c1ccc(Cl)cc1)=N[C@@H](CC(=O)OC(C)(C)C)c1nnc(C)n1-2 [NCGC00250412-19] | -43.8 |
| CC1(C)C(=O)N(CCN2CCC(C(=O)c3ccc(F)cc3)CC2)c2ccccc21 + Cc1sc2c(c1C)C(c1ccc(Cl)cc1)=N[C@@H](CC(=O)OC(C)(C)C)c1nnc(C)n1-2 [NCGC00250412-19] | -96.3 |
| N[C@@H](CC(=O)N1CCn2c(nnc2C(F)(F)F)C1)Cc1cc(F)c(F)cc1F + Cc1sc2c(c1C)C(c1ccc(Cl)cc1)=N[C@@H](CC(=O)OC(C)(C)C)c1nnc(C)n1-2 [NCGC00250412-19] | -133 |
| CCOC(=O)c1cncn1[C@H](C)c1ccccc1 + Cc1sc2c(c1C)C(c1ccc(Cl)cc1)=N[C@@H](CC(=O)OC(C)(C)C)c1nnc(C)n1-2 [NCGC00250412-19] | -37.5 |
| COc1nc(C)cnc1NS(=O)(=O)c1cccnc1-c1ccc(-c2nnco2)cc1 + Cc1sc2c(c1C)C(c1ccc(Cl)cc1)=N[C@@H](CC(=O)OC(C)(C)C)c1nnc(C)n1-2 [NCGC00250412-19] | -73.3 |
| Cc1oc(=O)oc1CN1CCN(c2cc3c(cc2F)c(=O)c(C(=O)O)c2n3C(C)S2)CC1 (stereo not drawn) + Cc1sc2c(c1C)C(c1ccc(Cl)cc1)=N[C@@H](CC(=O)OC(C)(C)C)c1nnc(C)n1-2 [NCGC00250412-19] | -73.5 |
| C/C(O)=C(\C#N)C(=O)Nc1ccc(C(F)(F)F)cc1 + Cc1sc2c(c1C)C(c1ccc(Cl)cc1)=N[C@@H](CC(=O)OC(C)(C)C)c1nnc(C)n1-2 [NCGC00250412-19] | -121 |
| CC(=O)Nc1ccc([C@H](C)C(=O)Nc2ncc(C(C)C)s2)cc1 + Cc1sc2c(c1C)C(c1ccc(Cl)cc1)=N[C@@H](CC(=O)OC(C)(C)C)c1nnc(C)n1-2 [NCGC00250412-19] | -80.7 |
| COc1cc2ncn(-c3cc(OCc4ccccc4S(C)(=O)=O)c(C#N)s3)c2cc1OC + Cc1sc2c(c1C)C(c1ccc(Cl)cc1)=N[C@@H](CC(=O)OC(C)(C)C)c1nnc(C)n1-2 [NCGC00250412-19] | 137 |
| Cn1cc(/C=C/C(=O)c2cccc(F)c2)cc1/C=C/C(=O)NO + Cc1sc2c(c1C)C(c1ccc(Cl)cc1)=N[C@@H](CC(=O)OC(C)(C)C)c1nnc(C)n1-2 [NCGC00250412-19] | -14 |
| C[C@@H](Oc1cc(-c2cnn(C3CCNCC3)c2)cnc1N)c1c(Cl)ccc(F)c1Cl + Cc1sc2c(c1C)C(c1ccc(Cl)cc1)=N[C@@H](CC(=O)OC(C)(C)C)c1nnc(C)n1-2 [NCGC00250412-19] | -74.5 |
| COCCCOc1ccnc(C[S+]([O-])c2nc3ccccc3[nH]2)c1C (stereo not drawn) + Cc1sc2c(c1C)C(c1ccc(Cl)cc1)=N[C@@H](CC(=O)OC(C)(C)C)c1nnc(C)n1-2 [NCGC00250412-19] | 9.81 |
| CC(=O)C1=C(O)C=C2Oc3c(C(C)=O)c(O)c(C)c(O)c3C2(C)C1=O (stereo not drawn) + Cc1sc2c(c1C)C(c1ccc(Cl)cc1)=N[C@@H](CC(=O)OC(C)(C)C)c1nnc(C)n1-2 [NCGC00250412-19] | -78.6 |
| O=C(O)c1ccc(-c2cc3cccnc3c(-c3ccc4nonc4c3)n2)cc1 + Cc1sc2c(c1C)C(c1ccc(Cl)cc1)=N[C@@H](CC(=O)OC(C)(C)C)c1nnc(C)n1-2 [NCGC00250412-19] | 29.4 |
